Some of the results follow.
These targets were tested with COc1ccc(Cn2ccc3ccc(C(=O)NO)cc32)cc1 (assay: dose-dependent thermal stabilisation call (2D-TPP, DLPTP, 10% FDR) (binary (1 = stabilised)); higher = stabilised by the compound). Conditions: system: HL-60 intact cells; concentration range 0.04-10 µM.

Protein sequences, listed by entry. Tags and fused reporters are not part of them. Lines headed by an entry give the natural chain unless they say otherwise; changes in a name come on top.
UniProt Q9UHV9, whole entry: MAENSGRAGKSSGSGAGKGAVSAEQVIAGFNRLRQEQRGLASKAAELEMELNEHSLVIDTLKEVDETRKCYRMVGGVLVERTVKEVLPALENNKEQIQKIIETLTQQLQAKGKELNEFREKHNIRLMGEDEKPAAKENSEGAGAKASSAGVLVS
UniProt P57740: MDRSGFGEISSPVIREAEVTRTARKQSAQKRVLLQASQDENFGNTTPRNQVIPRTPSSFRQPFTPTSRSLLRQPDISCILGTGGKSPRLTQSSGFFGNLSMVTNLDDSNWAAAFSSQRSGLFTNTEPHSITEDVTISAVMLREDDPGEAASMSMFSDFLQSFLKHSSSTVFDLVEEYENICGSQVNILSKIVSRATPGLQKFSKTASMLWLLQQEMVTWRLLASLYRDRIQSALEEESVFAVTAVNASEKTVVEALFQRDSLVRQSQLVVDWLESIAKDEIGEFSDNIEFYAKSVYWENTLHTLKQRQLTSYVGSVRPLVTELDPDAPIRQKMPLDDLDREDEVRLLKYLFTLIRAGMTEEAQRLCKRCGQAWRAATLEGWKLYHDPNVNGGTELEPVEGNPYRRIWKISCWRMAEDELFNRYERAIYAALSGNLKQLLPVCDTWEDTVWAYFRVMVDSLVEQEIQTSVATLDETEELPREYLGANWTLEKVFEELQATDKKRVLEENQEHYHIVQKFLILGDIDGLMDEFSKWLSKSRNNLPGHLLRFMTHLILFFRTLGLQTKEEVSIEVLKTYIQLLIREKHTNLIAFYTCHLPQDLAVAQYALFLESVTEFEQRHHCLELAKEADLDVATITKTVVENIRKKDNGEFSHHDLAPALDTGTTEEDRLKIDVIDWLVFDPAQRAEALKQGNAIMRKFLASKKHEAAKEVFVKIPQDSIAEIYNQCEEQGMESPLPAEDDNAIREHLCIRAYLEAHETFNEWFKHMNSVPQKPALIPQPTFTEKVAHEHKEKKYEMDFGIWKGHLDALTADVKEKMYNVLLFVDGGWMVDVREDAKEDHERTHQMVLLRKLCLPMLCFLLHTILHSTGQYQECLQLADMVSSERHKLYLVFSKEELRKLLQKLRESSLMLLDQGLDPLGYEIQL
UniProt P82970: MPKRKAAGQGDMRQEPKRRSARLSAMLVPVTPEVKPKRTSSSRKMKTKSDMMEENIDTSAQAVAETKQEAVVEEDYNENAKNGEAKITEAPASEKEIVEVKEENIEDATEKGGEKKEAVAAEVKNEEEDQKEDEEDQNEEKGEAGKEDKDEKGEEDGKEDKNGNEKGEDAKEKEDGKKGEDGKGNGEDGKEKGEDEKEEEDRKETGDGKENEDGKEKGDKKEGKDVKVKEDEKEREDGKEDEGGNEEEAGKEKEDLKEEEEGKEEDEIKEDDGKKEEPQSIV
UniProt Q14690: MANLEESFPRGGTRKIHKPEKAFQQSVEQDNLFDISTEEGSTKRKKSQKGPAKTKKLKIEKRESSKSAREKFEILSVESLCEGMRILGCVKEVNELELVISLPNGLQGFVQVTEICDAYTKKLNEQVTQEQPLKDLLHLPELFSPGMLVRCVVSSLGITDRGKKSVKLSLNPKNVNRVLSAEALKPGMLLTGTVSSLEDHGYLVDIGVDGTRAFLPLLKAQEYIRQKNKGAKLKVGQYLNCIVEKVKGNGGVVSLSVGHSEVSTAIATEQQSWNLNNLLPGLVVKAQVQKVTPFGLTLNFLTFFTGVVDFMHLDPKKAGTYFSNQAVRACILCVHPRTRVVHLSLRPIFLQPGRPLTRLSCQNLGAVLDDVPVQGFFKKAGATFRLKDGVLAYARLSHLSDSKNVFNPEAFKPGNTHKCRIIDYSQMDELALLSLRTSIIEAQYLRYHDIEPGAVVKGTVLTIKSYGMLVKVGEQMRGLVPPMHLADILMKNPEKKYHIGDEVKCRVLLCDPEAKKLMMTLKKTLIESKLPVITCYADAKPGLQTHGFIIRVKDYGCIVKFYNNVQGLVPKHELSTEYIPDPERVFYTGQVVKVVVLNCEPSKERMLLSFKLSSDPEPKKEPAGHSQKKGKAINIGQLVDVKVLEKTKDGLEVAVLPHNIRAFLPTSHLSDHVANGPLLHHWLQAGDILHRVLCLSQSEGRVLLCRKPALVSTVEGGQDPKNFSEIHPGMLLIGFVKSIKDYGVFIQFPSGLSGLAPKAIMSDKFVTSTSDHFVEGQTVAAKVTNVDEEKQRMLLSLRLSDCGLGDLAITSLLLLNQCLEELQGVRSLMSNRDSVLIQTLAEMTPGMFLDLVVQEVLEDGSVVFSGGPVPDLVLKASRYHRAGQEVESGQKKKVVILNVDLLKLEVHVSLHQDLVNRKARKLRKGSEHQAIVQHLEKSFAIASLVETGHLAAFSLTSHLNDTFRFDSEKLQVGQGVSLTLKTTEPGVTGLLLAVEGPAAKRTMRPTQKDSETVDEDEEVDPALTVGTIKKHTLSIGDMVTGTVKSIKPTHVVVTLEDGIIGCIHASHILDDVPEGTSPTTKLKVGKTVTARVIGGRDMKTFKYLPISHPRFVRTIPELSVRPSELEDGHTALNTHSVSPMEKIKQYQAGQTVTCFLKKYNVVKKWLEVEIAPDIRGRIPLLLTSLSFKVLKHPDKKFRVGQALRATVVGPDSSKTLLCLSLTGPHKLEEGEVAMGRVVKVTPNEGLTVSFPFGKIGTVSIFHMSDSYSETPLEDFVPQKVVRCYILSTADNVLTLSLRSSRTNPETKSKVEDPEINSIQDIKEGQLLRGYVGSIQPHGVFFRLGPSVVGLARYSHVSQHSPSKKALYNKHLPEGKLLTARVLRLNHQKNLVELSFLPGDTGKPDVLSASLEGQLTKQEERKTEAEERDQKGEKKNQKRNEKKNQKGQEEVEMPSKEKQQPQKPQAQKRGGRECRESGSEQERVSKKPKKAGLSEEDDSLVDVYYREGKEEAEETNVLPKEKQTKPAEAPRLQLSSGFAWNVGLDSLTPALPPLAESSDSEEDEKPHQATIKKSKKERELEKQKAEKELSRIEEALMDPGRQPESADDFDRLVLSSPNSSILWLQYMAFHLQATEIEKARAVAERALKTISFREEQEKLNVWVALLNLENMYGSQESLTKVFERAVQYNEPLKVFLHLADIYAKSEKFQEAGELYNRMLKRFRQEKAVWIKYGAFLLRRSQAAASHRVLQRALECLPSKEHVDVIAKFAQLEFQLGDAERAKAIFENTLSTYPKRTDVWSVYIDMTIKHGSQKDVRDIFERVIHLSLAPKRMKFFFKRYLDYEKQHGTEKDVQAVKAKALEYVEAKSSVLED
UniProt Q12769: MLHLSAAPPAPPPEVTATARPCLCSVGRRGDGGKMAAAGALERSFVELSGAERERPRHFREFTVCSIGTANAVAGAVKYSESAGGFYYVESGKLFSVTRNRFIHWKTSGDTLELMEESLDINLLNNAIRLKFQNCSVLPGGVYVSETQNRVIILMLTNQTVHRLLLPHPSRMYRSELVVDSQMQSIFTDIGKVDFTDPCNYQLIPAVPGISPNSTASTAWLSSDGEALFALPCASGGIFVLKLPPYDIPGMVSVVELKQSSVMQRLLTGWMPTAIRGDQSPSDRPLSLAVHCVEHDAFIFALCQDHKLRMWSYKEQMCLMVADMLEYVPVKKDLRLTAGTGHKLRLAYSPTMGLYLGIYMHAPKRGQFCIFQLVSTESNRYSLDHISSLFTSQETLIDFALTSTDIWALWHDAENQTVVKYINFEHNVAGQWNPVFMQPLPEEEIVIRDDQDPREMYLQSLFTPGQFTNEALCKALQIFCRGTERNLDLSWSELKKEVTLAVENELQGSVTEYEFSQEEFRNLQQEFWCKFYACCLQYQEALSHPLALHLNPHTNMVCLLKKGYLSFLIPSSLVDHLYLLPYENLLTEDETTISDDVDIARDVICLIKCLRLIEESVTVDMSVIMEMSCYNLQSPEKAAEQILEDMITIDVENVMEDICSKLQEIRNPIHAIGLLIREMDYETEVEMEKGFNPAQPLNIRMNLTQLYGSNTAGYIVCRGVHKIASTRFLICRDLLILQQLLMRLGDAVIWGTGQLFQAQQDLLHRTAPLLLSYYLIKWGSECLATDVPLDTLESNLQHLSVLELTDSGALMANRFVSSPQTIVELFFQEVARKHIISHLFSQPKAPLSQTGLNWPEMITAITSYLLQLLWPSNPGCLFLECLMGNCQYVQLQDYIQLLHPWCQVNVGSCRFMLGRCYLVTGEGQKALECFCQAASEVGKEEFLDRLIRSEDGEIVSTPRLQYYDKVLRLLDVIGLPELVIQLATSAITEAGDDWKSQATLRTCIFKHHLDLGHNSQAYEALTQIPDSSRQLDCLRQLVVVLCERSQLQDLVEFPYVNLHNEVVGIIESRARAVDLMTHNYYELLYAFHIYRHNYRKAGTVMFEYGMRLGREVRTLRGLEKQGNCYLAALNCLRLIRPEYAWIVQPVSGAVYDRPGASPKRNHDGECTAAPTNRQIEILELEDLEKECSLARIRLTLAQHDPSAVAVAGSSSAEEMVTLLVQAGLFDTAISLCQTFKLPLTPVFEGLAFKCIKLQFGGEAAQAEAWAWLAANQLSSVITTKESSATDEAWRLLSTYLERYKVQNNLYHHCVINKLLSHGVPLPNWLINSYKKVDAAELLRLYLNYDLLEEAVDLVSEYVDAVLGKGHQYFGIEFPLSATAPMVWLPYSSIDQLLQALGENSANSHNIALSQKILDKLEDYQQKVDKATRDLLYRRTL
UniProt Q8TEW0: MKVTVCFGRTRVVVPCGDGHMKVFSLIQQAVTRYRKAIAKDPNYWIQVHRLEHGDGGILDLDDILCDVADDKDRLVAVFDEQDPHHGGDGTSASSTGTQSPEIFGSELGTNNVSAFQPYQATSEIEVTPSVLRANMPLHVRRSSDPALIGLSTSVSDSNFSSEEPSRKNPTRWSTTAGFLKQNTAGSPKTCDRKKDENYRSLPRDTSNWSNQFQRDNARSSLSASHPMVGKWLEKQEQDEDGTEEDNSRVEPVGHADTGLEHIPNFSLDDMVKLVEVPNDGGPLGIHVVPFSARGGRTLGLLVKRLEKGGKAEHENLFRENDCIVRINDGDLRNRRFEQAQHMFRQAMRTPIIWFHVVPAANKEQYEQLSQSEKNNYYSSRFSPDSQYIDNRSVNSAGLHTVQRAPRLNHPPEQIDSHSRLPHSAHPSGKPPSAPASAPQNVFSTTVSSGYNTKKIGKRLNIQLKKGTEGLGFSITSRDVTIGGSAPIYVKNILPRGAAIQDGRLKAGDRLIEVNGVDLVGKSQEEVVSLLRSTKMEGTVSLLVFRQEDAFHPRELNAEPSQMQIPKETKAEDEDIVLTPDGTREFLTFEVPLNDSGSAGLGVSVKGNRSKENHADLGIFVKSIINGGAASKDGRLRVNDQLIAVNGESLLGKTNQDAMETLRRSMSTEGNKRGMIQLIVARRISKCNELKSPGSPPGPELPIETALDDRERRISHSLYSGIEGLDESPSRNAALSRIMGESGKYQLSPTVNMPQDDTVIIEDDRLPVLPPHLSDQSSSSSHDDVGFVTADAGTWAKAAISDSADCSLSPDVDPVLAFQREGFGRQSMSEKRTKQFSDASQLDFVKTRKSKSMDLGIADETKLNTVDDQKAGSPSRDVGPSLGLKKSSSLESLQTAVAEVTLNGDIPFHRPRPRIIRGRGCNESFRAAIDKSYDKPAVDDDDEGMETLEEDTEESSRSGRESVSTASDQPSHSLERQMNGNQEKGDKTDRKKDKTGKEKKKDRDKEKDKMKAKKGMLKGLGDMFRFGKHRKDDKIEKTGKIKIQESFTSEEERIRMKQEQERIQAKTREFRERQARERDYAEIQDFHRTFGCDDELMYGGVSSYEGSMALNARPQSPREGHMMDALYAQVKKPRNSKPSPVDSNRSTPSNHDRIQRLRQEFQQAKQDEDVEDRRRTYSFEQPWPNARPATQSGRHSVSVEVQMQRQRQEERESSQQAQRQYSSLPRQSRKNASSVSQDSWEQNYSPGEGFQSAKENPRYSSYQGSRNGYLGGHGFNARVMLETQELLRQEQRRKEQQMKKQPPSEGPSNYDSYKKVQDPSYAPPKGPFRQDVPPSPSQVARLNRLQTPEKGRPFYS
UniProt O96011: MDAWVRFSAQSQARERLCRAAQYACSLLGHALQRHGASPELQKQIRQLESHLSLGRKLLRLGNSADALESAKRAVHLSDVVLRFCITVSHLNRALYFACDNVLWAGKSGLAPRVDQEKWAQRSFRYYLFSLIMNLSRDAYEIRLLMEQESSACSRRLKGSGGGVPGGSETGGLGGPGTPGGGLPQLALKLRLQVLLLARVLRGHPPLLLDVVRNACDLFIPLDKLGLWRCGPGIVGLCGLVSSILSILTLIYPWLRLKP
UniProt Q9H1E3: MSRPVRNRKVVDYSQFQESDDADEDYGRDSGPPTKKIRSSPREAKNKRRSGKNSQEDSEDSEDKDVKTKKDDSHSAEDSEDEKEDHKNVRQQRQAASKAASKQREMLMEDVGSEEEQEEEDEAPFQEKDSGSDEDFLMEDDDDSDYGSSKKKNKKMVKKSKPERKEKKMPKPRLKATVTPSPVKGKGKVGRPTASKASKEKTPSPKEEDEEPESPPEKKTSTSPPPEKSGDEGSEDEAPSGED

| Target | dose-dependent thermal stabilisation call |
| --- | --- |
| NUP50 (UniProt Q9UKX7) | inactive: 0 |
| NT5C3 (UniProt Q9H0P0) | inactive: 0 |
| PFDN2 (UniProt Q9UHV9) | inactive: 0 |
| NUP107 (UniProt P57740) | inactive: 0 |
| PABPN1 (UniProt Q86U42) | inactive: 0 |
| OXR1 (UniProt Q8N573) | inactive: 0 |
| NSL1 (UniProt Q96IY1) | inactive: 0 |
| PDCD2 (UniProt Q16342) | inactive: 0 |
| PFDN4 (UniProt Q9NQP4) | inactive: 0 |
| NUSAP1 (UniProt Q9BXS6) | inactive: 0 |
| PACSIN3 (UniProt Q9UKS6) | inactive: 0 |
| NSDHL (UniProt Q15738) | active: 1 |
| NSBP1 (UniProt P82970) | inactive: 0 |
| NSUN5 (UniProt Q96P11) | inactive: 0 |
| PAFAH1B1 (UniProt P43034) | inactive: 0 |
| NUP133 (UniProt Q8WUM0) | inactive: 0 |
| PDCD11 (UniProt Q14690) | inactive: 0 |
| NUP160 (UniProt Q12769) | inactive: 0 |
| PARD3 (UniProt Q8TEW0) | inactive: 0 |
| ORC4L (UniProt O43929) | inactive: 0 |
| PANX1 (UniProt Q96RD7) | inactive: 0 |
| OTUB1 (UniProt Q96FW1) | inactive: 0 |
| PEX11B (UniProt O96011) | inactive: 0 |
| PDS5A (UniProt Q29RF7) | inactive: 0 |
| NUCKS1 (UniProt Q9H1E3) | inactive: 0 |
| NR3C1 (UniProt P04150) | inactive: 0 |
| PEX3 (UniProt P56589) | inactive: 0 |

2 records picked at random from the list so far:

| Target | dose-dependent thermal stabilisation call |
| --- | --- |
| ORC4L (UniProt O43929) | inactive: 0 |
| NUCKS1 (UniProt Q9H1E3) | inactive: 0 |

From the supplement of paper PMC7666118
